Results as given in PubChem BioAssay AID1347423 (Functional Genomics Laboratory (NCATS/FGL), 2020).
Out of some 52,000 sequences screened, about 210 (0.4%) were called active.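 The calls were made as follows: active = gene whose silencing raises cell survival under the drug, median off-target-corrected z-score across its silencing RNAs 2 or more; inactive = the rest.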 The list shows a part of the results.

Test: Resistance to Poly (ADP-Ribose) Polymerase inhibitor: Gene Identification via Genome-wide siRNA Screen
Conditions: mouse BRCA2 R2336H ES cells, olaparib, CellTiter-Glo viability; stronger effect = higher value
Method in brief: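 Genome-wide siRNA screen (3 siRNAs/gene, 20 nM) in mouse ES cells carrying hypomorphic BRCA2 R2336H; olaparib 500 nM added 48 h post-transfection, CellTiter-Glo viability 72 h later. Normalized to plate-median negative control; MAD z-scores, gene median, seed-adjusted.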
With CCCUGAUCCUAGUGGAAAUTT against Kng1 the z-score was inactive: 0.425. With GGUUGUACUGAGUAGCUGGTT against Slc7a4 the z-score was inactive: -1.31. For GCAGCUAUUGAGCAUGGUGTT against Atp6v1g3, the z-score was inactive: 0.463. In the case of GAGUGUGAAGAUAGACUUCTT against Myl4, the z-score is reported as inactive: -0.222. In the case of “GGAAAUUGUGAGAAGAACUTT against 2210009G21Rik”, the z-score is reported as inactive: 0.689. In the case of GCUCUUGACACUAGAGAUUTT against Ap1s3, the z-score is reported as inactive: 1.26. In the case of GGUUGUUAAGCUGAAGCAATT against Prkacb, the z-score is reported as inactive: -2.29. For “GGAUCUAUGAAACCACCGUTT against 2310016C16Rik”, the z-score was inactive: 2.54. For GGACAUUCAACCUGAAGUUTT against Hs6st3, the z-score was inactive: 0.0587. For GGAGAAAAGCUCUGUUCACTT against Olfr1195, the z-score was inactive: -0.596. For GGAGAAGGAACUGUGUGAGTT against Nfkbil1, the z-score was inactive: -0.452. In the case of GCAGUUGACAUUUACUCUCTT against Gm67, the z-score is reported as inactive: -0.284. In the case of GGCUUUCUUAUUUUCCUGUTT against BC003266, the z-score is reported as inactive: 0.55. With GCAGCCUACUAACCGGAUUTT against Cited4 the z-score was inactive: -1.55. In the case of GCAUGCUGACCACAAUAGATT against Arhgef11, the z-score is reported as inactive: 1.01. For “GGAUACUAGCAGUUGUUCGTT against D15Wsu169e”, the z-score was inactive: -0.418. For GACUUCAUGGUCAAACUUATT against Rpl4, the z-score was inactive: -0.414. With CCUUUGUAUUUGACGUGUATT against Idb4 the z-score was inactive: 0.0721. For “CCAUCACCGAAGCAUUAAATT against 4930504O13Rik”, the z-score was inactive: 0.308. For GGGAAAUGAGUUUCUACCGTT against Ebna1bp2, the z-score was inactive: 0.162. For GGGAUUUUUUAUUAAGCCCTT against Foxg1, the z-score was inactive: -1.12. For CCACUCAUUGUUCAUGGAATT against Olfr1490, the z-score was inactive: 0.476. For GGAGCUUGAAAUUGUCAUUTT against Magoh, the z-score was inactive: -2.64. With GGGACAUGAGUAACUGAUGTT against Dhx8 the z-score was inactive: 0.0939. With GGUAGUGUGAAAAUCCUGGTT against Bst1 the z-score was inactive: 1.52. In the case of GGACUCUUCUGAACUCUACTT against Ifna13, the z-score is reported as inactive: 0.549. In the case of “CCCACUGGAAGAUUCAAACTT against 2610029D06Rik”, the z-score is reported as inactive: 0.289. With GGACAUGUUCAACUCCUUCTT against Ppp4r1 the z-score was inactive: 0.412. With GGGCUUUCACACAAUCCCUTT against Kcns1 the z-score was inactive: 1.47. For CCAAAACUUGGGCAUGUGCTT against Olfr94, the z-score was inactive: -0.326. In the case of GGUUCUUGGAUAAAUCAAGTT against Mrpl40, the z-score is reported as inactive: 1.81. In the case of GGGAGUGCCCAUCAUUGUUTT against Rhod, the z-score is reported as inactive: 0.543. For “GGAAUCGAGAAUUACUACGTT against 2700063A19Rik”, the z-score was inactive: 1.37. In the case of GGCUAAUUCUGGCUUACGATT against Wfdc5, the z-score is reported as inactive: 0.282. In the case of GGGUCUUCCUUUCCUAUGATT against Msi2h, the z-score is reported as inactive: -0.319. With GCAUCUGUAAUGAACUGGUTT against Mrpl10 the z-score was inactive: -0.84. In the case of “GGCAUCUUAUUUCUUGUUATT against 3110043L15Rik”, the z-score is reported as inactive: 1.16. For GGGCUGGCUACGAUAAGCUTT against Tes, the z-score was inactive: -0.442. For GGGUCAGAAUGUUACCAAATT against Cdc27, the z-score was inactive: -3.33. For GGGCUACUCAGCCUAUAGUTT against Accn4, the z-score was inactive: -0.0201. In the case of GGCGAAUGUGUGAAGAGGCTT against H2-Q5, the z-score is reported as inactive: 1.33. For GGUUAGCAACAUUAAGAAGTT against Cops7b, the z-score was inactive: -0.294. With GGAGAAAAACUUCUGGAACTT against Wdr41 the z-score was inactive: 0.825. In the case of GCGAAAGAAGGUGAUUAUGTT against Cyp26a1, the z-score is reported as inactive: -1.2. For GGACUUUGUCAACCUGAUGTT against Rhbdl4, the z-score was inactive: 0.37. For GGUAGUUUGAAAUGCUAACTT against St6gal2, the z-score was inactive: 1.79. In the case of GGUGACAAUUCAAAACUCATT against Fgf18, the z-score is reported as inactive: -0.89. For GCCAAACUGCGUCUGAAUGTT against Rras, the z-score was inactive: -0.211. In the case of GCUUAACAACUACGAGCCCTT against Dot1l, the z-score is reported as inactive: -0.469. In the case of GGAACUCACAACUAUGAGCTT against Pla2g10, the z-score is reported as inactive: -0.635. For GCCGCUUAUAUGUAUCGCUTT against Acdc, the z-score was inactive: -0.197. In the case of GGGAGAUAGGCAUUUGAUGTT against Arid3a, the z-score is reported as inactive: 0.762. For “GGUUCUCGCUCUUAUCUGUTT against D1Ertd396e”, the z-score was inactive: -0.296. With GGGUAGGAGGAAAGUGUUCTT against Olfr1093 the z-score was inactive: 1.78. In the case of GGCAUUUCUUCCAGAUAUUTT against Il1r1, the z-score is reported as inactive: 2.44. In the case of GGGCAAAGGUCAGUACUUGTT against Col8a2, the z-score is reported as inactive: -0.0431. With CGACGUGAGUUAAUGCUGCTT against AI449441 the z-score was inactive: -1.15. For “GGAGCUCCUUUACUGAAGGTT against 3110070M22Rik”, the z-score was inactive: -0.302. In the case of GCAUAAGGUUUGUGACAUUTT against Wrnip1, the z-score is reported as inactive: 2.39. For “GGUGGGUACUGAAAGCCCATT against 4922504M18Rik”, the z-score was inactive: 0.904. In the case of CCAUACGAUGACUGAAUUCTT against Olfr1186, the z-score is reported as inactive: 0.672. For GGUUCAAAGCUAUCCACUUTT against Rlbp1, the z-score was inactive: 0.365. In the case of GGCUGAGCCAUUUGACAGATT against AU041783, the z-score is reported as inactive: -0.706. With GCAAGCGAUGGCACAUAGATT against Ap1g2 the z-score was inactive: -0.948. For “CGAAGCUAAAGGAUAUAGATT against 1110025H10Rik”, the z-score was inactive: 0.236. For GGCGAAGUGUCAUUGUAUUTT against Foxd3, the z-score was inactive: -1.63. With GGGACUUUUUUUGAAUCCUTT against Ndrg3 the z-score was inactive: 0.835. For GGAGUCUUCGAAAAUUGAGTT against Pmfbp1, the z-score was inactive: 0.278. For GGAGAUUUUGGUGGCUAUUTT against Uqcrfs1, the z-score was inactive: -2.64. In the case of “GCGAUUUCUCUAAAUGGCUTT against 5031414D18Rik”, the z-score is reported as inactive: 2.69. With “GCAACUCUAACUUAUAAGATT against 6030446I19Rik” the z-score was inactive: 0.225. With CGAGAUGUACCUUGAUACUTT against Idh3a the z-score was inactive: 0.889. With GGCUAAUGAACCACUUUUUTT against LOC217066 the z-score was inactive: -0.423. For CCCUCUCUUUUAUAGAUGATT against Ap3s2, the z-score was inactive: -0.0194. In the case of “GCAUCUCACUCGUAAAGGUTT against 4732406D01Rik”, the z-score is reported as inactive: -0.389. With “CCAAGCAUAUGUGGUUGUUTT against 5330440M15Rik” the z-score was inactive: -0.961. With CCCACCACUUUCCGAAAAUTT against Pacrg the z-score was inactive: 0.694. With CCUGGUGCGUUCAUUCCUGTT against BC005662 the z-score was inactive: -0.225. In the case of GCUUCCUUAUAGAAUUAGATT against BC033609, the z-score is reported as inactive: 1.03. In the case of GGAAUUUAUCAAGGUCAUGTT against Ethe1, the z-score is reported as inactive: -0.685. With CGCAUAUCAAAACUCAGAATT against Mtm1 the z-score was inactive: 0.354. In the case of “GGGUAGCCAAACAAAGACATT against G630055P03Rik”, the z-score is reported as inactive: -1.6. In the case of “GCAGCUCUCAACAGUUAUATT against 2310066N05Rik”, the z-score is reported as inactive: -0.667. With “GGUUUUGUGAGGAGGCCAGTT against 1700001E04Rik” the z-score was inactive: -0.915. In the case of “GGAAAAAAAGGUAGCUGGATT against D10Bwg0791e”, the z-score is reported as inactive: 2.18. In the case of “GGACCCUGCUUUCUCUGCUTT against D230039L06Rik”, the z-score is reported as inactive: -1.16. With “GGGACUUAAGGAGAGAAAUTT against E330028A19Rik” the z-score was inactive: -0.925. In the case of GGAUGAUAUUGAAAGUCUGTT against Me2, the z-score is reported as inactive: 0.313. In the case of GGUCAAGAAGAACAAGCUGTT against Ucn3, the z-score is reported as inactive: -0.569. With GGAGCUUCGAAACUACAUGTT against Hspa5bp1 the z-score was inactive: 1.14. In the case of CCCAGUAUUUUGGAACUAUTT against Napsa, the z-score is reported as inactive: 1.78. In the case of GCCCAAAGGUCAAGGAUAUTT against Rptn, the z-score is reported as inactive: -1.95. For GAAGCUGUCCAAGUACGAGTT against Atoh7, the z-score was inactive: -0.677. In the case of CCGAAUGAUCAUCACACUGTT against V1rc15, the z-score is reported as inactive: 1.96. For “GCCUGAGACCCUAGAUGCUTT against 2810405K07Rik”, the z-score was inactive: -0.866. With “GGGUUUGUGUUUAGUGAAUTT against 2310047O13Rik” the z-score was inactive: -1.29. For GGGAGUCAAGCUGUUUGCUTT against Col7a1, the z-score was inactive: 1.95. In the case of GCACUUUACGAGUAUGUAATT against Gna-rs1, the z-score is reported as inactive: -0.529. In the case of “CCUAGUUCCCAAAGAGUGGTT against C130096D04Rik”, the z-score is reported as inactive: -0.584. With “CCAAGGGAAGAUUCAAAUUTT against D930031B21Rik” the z-score was inactive: -1.19. For CCCACUGGUGUACGUGAUCTT against Bdkrb2, the z-score was inactive: 1.92. In the case of GGGCCAUGGAAUUGUAAGATT against Mobp, the z-score is reported as inactive: 0.372. With GGAUUUGAAGUCACUCAUUTT against Nubp1 the z-score was inactive: -0.732.
